# Reference: PubChem BioAssay AID652 (University of Pittsburgh Molecular Library Screening Center, 2007)
# This is one part of the list.
# Molecular target: Gag-Pol polyprotein (Human immunodeficiency virus type 1 group M subtype B (isolate HXB2)) (UniProt P04585)
# Test: HIV-1 RT RNase H inhibitor potency, dose response, biochemical, probe assessment (AID 652)
# Conditions: HIV-1 RT RNase H enzymatic assay, at 50 µM, stronger effect = higher value
structure (smiles),measurement,value
O=P(Nc1nccs1)(c1ccccc1)c1nc2ccccc2s1 (stereo unspecified),inhibition,93.2%
